From PubChem BioAssay AID330 (DTP/NCI, 2004)
The list does not hold the whole screen: it gathers tests that were run many times, whatever their T/C, doses with no T/C, and many T/C values between a quarter and a half above the control. Other doses and runs of a compound stand elsewhere. T/C is the treated group as % of the vehicle group. Some doses have a count of surviving animals in place of a T/C: the source files T/C as zero there, which appears to mark a toxic dose or a test without result, not a measured value. Some doses without a T/C left all or most animals alive at the check, yet need not have been tolerated: survival well below the control is almost never listed, so the zero probably covers shortened survival too. Survivors were counted at the toxicity check, usually on the fifth day, unless a day is given; later deaths do not show. Schedules are NCI's codes, taken here to give the interval after Q, in days (D) or hours (H), and the number of doses after X. Some doses were run more than once; the values are given in rising order. For survival time, the PubChem record calls one and a half times the control and up active, and a quarter to a half above the control has no call in these data; cut-offs in other NCI protocols can differ. Some T/C values are followed by the survivors on the day toxicity was checked, most often the fifth; without a count, all were alive then.

Tested on: P388 leukemia ip, CD2F1 mice, survival T/C
Experiment: NCI In Vivo Anticancer Drug Screen. Data for tumor model P388 Leukemia (intraperitoneal) in CD2F1 (CDF1) mice
Conditions: T/C endpoint: median survival time, higher T/C = longer survival
[1] = dose: 240.0 mg/kg/injection, schedule: Q01DX005 (ip), vehicle: Klucel + Tween-80
[2] = dose: 200.0 mg/kg/injection, schedule: Q01DX005 (ip), vehicle: saline with Tween-80
[3] = dose: 400.0 mg/kg/injection, schedule: Q04DX002 (ip), vehicle: Klucel (hydroxypropylcellulose) (HPC)
[4] = dose: 200.0 mg/kg/injection, schedule: Q01DX009 (ip), vehicle: Klucel (hydroxypropylcellulose) (HPC)
[5] = dose: 200.0 mg/kg/injection, schedule: Q04DX003 (ip), vehicle: saline with Tween-80
[6] = dose: 400.0 mg/kg/injection, schedule: Q04DX003 (ip), vehicle: saline with Tween-80
[7] = dose: 100.0 mg/kg/injection, schedule: Q01DX009 (ip), vehicle: Klucel (hydroxypropylcellulose) (HPC)
[8] = dose: 50.0 mg/kg/injection, schedule: Q01DX005 (ip), vehicle: saline with Tween-80
[9] = dose: 100.0 mg/kg/injection, schedule: Q01DX005 (ip), vehicle: saline with Tween-80
[10] = dose: 100.0 mg/kg/injection, schedule: Q04DX002 (ip), vehicle: saline with Tween-80
[11] = dose: 50.0 mg/kg/injection, schedule: Q01DX009 (ip), vehicle: saline

For `N#Cc1c(-c2ccc(Cl)cc2)c(-c2ccc(Cl)cc2)nn(CCOC(=O)CCC(=O)O)c1=O`, the T/C (dose: 50.0 mg/kg/injection, schedule: Q01DX005 (ip), vehicle: saline) was 133 and 148 % of control [5 of 6 alive], the T/C (dose: 50.0 mg/kg/injection, schedule: Q01DX005 (ip), vehicle: sodium bicarbonate) was 128 % of control and the T/C (dose: 50.0 mg/kg/injection, schedule: Q04DX002 (ip), vehicle: distilled water + Tween-80) was 126 and 132 % of control. The survivor count (dose: 100.0 mg/kg/injection, schedule: Q01DX005 (ip), vehicle: distilled water + Tween-80) was 0 of 6, the survivor count (dose: 100.0 mg/kg/injection, schedule: Q01DX005 (ip), vehicle: saline) was 0 of 6 and the survivor count (dose: 200.0 mg/kg/injection, schedule: Q01DX005 (ip), vehicle: saline) was 0 of 6. The survivor count (dose: 200.0 mg/kg/injection, schedule: Q01DX005 (ip), vehicle: sodium bicarbonate) was 0 of 6 and the survivor count (dose: 200.0 mg/kg/injection, schedule: Q04DX002 (ip), vehicle: distilled water + Tween-80) was 2 of 6.
With `CCOC(=O)C1=C(SC)SC(C(=O)OCC)C2C=C(C)C=CN12` (stereo unspecified) the survivor count (dose: 120.0 mg/kg/injection, schedule: Q01DX005 (ip), vehicle: Klucel + Tween-80) was 3 of 6 and the survivor count [1] was 0 of 6.
For `C=CCNC(=S)N/N=C(\CCC)c1ccccn1`, the survivor count [2] was 0 of 6.
For `[Cl][Pt][Cl].[NH-]CC(=O)O`, the T/C (dose: 3.13 mg/kg/injection, schedule: Q01DX009 (ip), vehicle: water) was 129 % of control, the T/C (dose: 6.25 mg/kg/injection, schedule: Q01DX009 (ip), vehicle: water) was 131 and 132 % of control and the T/C (dose: 12.5 mg/kg/injection, schedule: Q01DX009 (ip), vehicle: water) was 148 and 149 % of control. For the same compound, the survivor count (dose: 100.0 mg/kg/injection, schedule: Q01DX009 (ip), vehicle: water) was 3 of 6.
`CCCCCCCCCCCCOC(=O)/C=C\C(=O)NC(N)=O` was tested, and the survivor count [3] was 5 of 6.
In the case of `Cc1[nH]c2ccc(N(C)C)cc2c(=O)c1CN(C)C`, the survivor count [4] is reported as 0 of 6.
With `CNCCCCCc1cc(-c2ccc([N+](=O)[O-])cc2)n[nH]1` the survivor count [5] was 5 of 6 and the survivor count [6] was 0 of 6.
`CC(=O)O/C=C(/C=C/OC(C)=O)C(C/C=C(\C)C#CC=C(C)C)OC(C)=O` (stereo unspecified) was tested, and the survivor count (dose: 85.0 mg/kg/injection, schedule: Q01DX005 (ip), vehicle: saline with Tween-80) was 0 of 6.
With `Brc1ccc[n+](CCc2ccccc2)c1` the survivor count (dose: 50.0 mg/kg/injection, schedule: Q01DX009 (ip), vehicle: saline with Tween-80) was 2 of 6.
In the case of `O=C1C=C(Cl)C(=O)C(c2ccc(Cl)cc2)=C1`, the survivor count (dose: 25.0 mg/kg/injection, schedule: Q01DX009 (ip), vehicle: Klucel (hydroxypropylcellulose) (HPC)) is reported as 6 of 6, the survivor count [7] is reported as 1 of 6 and the survivor count [4] is reported as 0 of 6.
With `CN(C)CCC[Si]1(C)c2ccccc2CCc2ccccc21` the survivor count (dose: 100.0 mg/kg/injection, schedule: Q04DX003 (ip), vehicle: saline with Tween-80) was 0 of 6, the survivor count [5] was 0 of 6 and the survivor count [6] was 0 of 6.
With `C[C@]12CC[C@H](OC(=O)/C=C\c3ccccc3N(CCCl)CCCl)CC1CC[C@@H]1C2CC[C@]2(C)NC(=O)CCC12` (stereo partly specified) the T/C (dose: 200.0 mg/kg/injection, schedule: Q01DX001 (ip), vehicle: saline with Tween-80) was 125 % of control and the T/C (dose: 400.0 mg/kg/injection, schedule: Q01DX001 (ip), vehicle: saline with Tween-80) was 134 and 140 % of control.
In the case of `Clc1ccc(N=C(c2ccncc2)c2cc(Cl)ccc2Cl)cc1`, the survivor count (dose: 200.0 mg/kg/injection, schedule: Q01DX009 (ip), vehicle: saline with Tween-80) is reported as 2 of 6.
In the case of `CCN1C(=O)c2cccc([N+](=O)[O-])c2C1=O`, the survivor count (dose: 400.0 mg/kg/injection, schedule: Q01DX009 (ip), vehicle: Klucel (hydroxypropylcellulose) (HPC)) is reported as 1 of 5.
In the case of `CN(C)CCCNc1ccc(O)c2c1C(=O)c1ccccc1C2=O`, the survivor count (dose: 200.0 mg/kg/injection, schedule: Q01DX009 (ip), vehicle: water) is reported as 6 of 6.
With `CC(C)NC(=O)OCc1cn2c(c1COC(=O)NC(C)C)CCC2` the T/C (dose: 25.0 mg/kg/injection, schedule: Q01DX005 (ip), vehicle: saline with Tween-80) was 128 % of control [5 of 6 alive], the T/C [8] was 126 [5 of 6 alive] and 133 % of control and the survivor count [9] was 1 of 6 and 3 of 6.
`O=C1CCCN1CC#CCN1CCCC1` was tested, and the survivor count (dose: 6.25 mg/kg/injection, schedule: Q01DX005 (ip), vehicle: Klucel (hydroxypropylcellulose) (HPC)) was 0 of 6, the survivor count (dose: 12.5 mg/kg/injection, schedule: Q01DX005 (ip), vehicle: Klucel (hydroxypropylcellulose) (HPC)) was 0 of 6 and the survivor count (dose: 25.0 mg/kg/injection, schedule: Q01DX005 (ip), vehicle: Klucel (hydroxypropylcellulose) (HPC)) was 0 of 6. The survivor count [8] was 0 of 6, the survivor count [9] was 0 of 6 and the survivor count [2] was 0 of 6.
In the case of `CC(=O)OC(C(=O)CBr)C(OC(C)=O)C(OC(C)=O)C(=O)CBr` (stereo unspecified), the survivor count (dose: 50.0 mg/kg/injection, schedule: Q01DX009 (ip), vehicle: Klucel (hydroxypropylcellulose) (HPC)) is reported as 0 of 6 and 5 of 6, the survivor count [7] is reported as 0 of 6 and the survivor count [4] is reported as 0 of 6.
In the case of `Cc1ccc(N=C(N)N/N=C/c2ccc3c(c2)Cc2ccccc2-3)cc1`, the survivor count [10] is reported as 1 of 6.
`CN(C)c1ccsc(=S)c1` was tested, and the survivor count (dose: 50.0 mg/kg/injection, schedule: Q01DX005 (ip), vehicle: Klucel (hydroxypropylcellulose) (HPC)) was 0 of 6, the survivor count (dose: 100.0 mg/kg/injection, schedule: Q01DX005 (ip), vehicle: Klucel (hydroxypropylcellulose) (HPC)) was 3 of 6 and the survivor count (dose: 200.0 mg/kg/injection, schedule: Q01DX005 (ip), vehicle: Klucel (hydroxypropylcellulose) (HPC)) was 0 of 6.
In the case of `COc1ccc(/C=C/C(C)=N/NC(N)=S)cc1OC`, the survivor count [2] is reported as 3 of 6.
For `C[N+]1(C)CCCC(O)(C(=O)c2ccccc2)C1` (stereo unspecified), the survivor count (dose: 400.0 mg/kg/injection, schedule: Q01DX001 (ip), vehicle: saline) was 1 of 6.
`COc1cc(/C=N/O)c(SC)cc1OC` was tested, and the T/C [3] was 126 % of control [4 of 5 alive].
With `CC(C)=CCC/C(C)=C/COc1ccc(/C=C2/C(=O)N(O)[C@@H](C)C(=O)N2O)cc1` the T/C (dose: 12.5 mg/kg/injection, schedule: Q01DX009 (ip), vehicle: saline) was 128 % of control, the T/C (dose: 25.0 mg/kg/injection, schedule: Q01DX009 (ip), vehicle: saline) was 133 % of control [5 of 6 alive] and the T/C [11] was 137 and 139 % of control. For the same compound, the survivor count [11] was 3 of 6, the survivor count (dose: 100.0 mg/kg/injection, schedule: Q01DX009 (ip), vehicle: saline) was 4 of 6 and the survivor count (dose: 200.0 mg/kg/injection, schedule: Q01DX009 (ip), vehicle: saline) was 1 of 6.
In the case of `N#CC(=S)N(C(=O)c1ccc(Cl)cc1)c1ccccc1Cl`, the survivor count [1] is reported as 2 of 6.
In the case of `C(=C\c1ccccc1)/C[P+](c1ccccc1)(c1ccccc1)c1ccccc1`, the survivor count (dose: 5.0 mg/kg/injection, schedule: Q01DX009 (ip), vehicle: saline with Tween-80) is reported as 4 of 6, the survivor count (dose: 10.0 mg/kg/injection, schedule: Q01DX009 (ip), vehicle: saline with Tween-80) is reported as 4 of 6 and the survivor count (dose: 20.0 mg/kg/injection, schedule: Q01DX009 (ip), vehicle: saline with Tween-80) is reported as 4 of 6.
For `CNc1ncnc2ccc(Cl)cc12`, the survivor count [4] was 2 of 6.
For `Cc1c2cc[n+](Cc3ccc(I)cc3)cc2c(C)c2c1[nH]c1ccccc12`, the T/C (dose: 50.0 mg/kg/injection, schedule: Q04DX002 (ip), vehicle: saline with Tween-80) was 140 % of control, the T/C (dose: 94.0 mg/kg/injection, schedule: Q04DX002 (ip), vehicle: saline with Tween-80) was 128 % of control and the T/C [10] was 133 % of control. For the same compound, the T/C (dose: 200.0 mg/kg/injection, schedule: Q04DX002 (ip), vehicle: saline with Tween-80) was 133 % of control [5 of 6 alive].
